Data taken from PubChem BioAssay AID248 (DTP/NCI, 2004).
The list does not hold the whole screen: its compounds were picked by chemical class. Not every dose and run of a compound is shown. T/C gives the treated animals as a percentage of the vehicle group. Some entries give survivors of the animals treated and no T/C: the source holds a T/C of zero for them, seemingly a mark for toxic or unscored doses. Some doses without a T/C left all or most animals alive at the check, yet need not have been tolerated: the source hardly ever lists a survival T/C far under the control, and the zero likely stands for such cases as well. Survivors were counted at the toxicity check, usually on the fifth day, unless a day is given; later deaths do not show. Schedules are NCI's codes, taken here to give the interval after Q, in days (D) or hours (H), and the number of doses after X. Some schedules carry Z or #; the key to these is not given. For survival time, the PubChem record calls one and a half times the control and up active, and a quarter to a half above the control has no call in these data; cut-offs in other NCI protocols can differ. Some T/C values carry the count of animals alive at the toxicity check (mostly the fifth day); without a count or a note in brackets, all were alive then. Some entries hold several experiments; the results are listed from low to high. Some entries show no survivor count and are marked so; the dose need not have been tolerated.

Test system: L1210 leukemia ip in BDF1 mice, survival T/C
Test: NCI In Vivo Anticancer Drug Screen. Data for tumor model L1210 Leukemia (intraperitoneal) in B6D2F1 (BDF1) mice
Conditions: higher T/C = longer survival
[1] = T/C endpoint: mean survival time, dose: 100.0 mg/kg/injection, schedule: Q04DX002 (ip), vehicle: Klucel (hydroxypropylcellulose) (HPC)
[2] = T/C endpoint: mean survival time, dose: 200.0 mg/kg/injection, schedule: Q04DX002 (ip), vehicle: Klucel (hydroxypropylcellulose) (HPC)
[3] = T/C endpoint: mean survival time, dose: 400.0 mg/kg/injection, schedule: Q04DX002 (ip), vehicle: Klucel (hydroxypropylcellulose) (HPC)
[4] = T/C endpoint: mean survival time, dose: 100.0 mg/kg/injection, schedule: Q01DX001 (ip), vehicle: carboxymethylcellulose (CMC)
[5] = T/C endpoint: mean survival time, dose: 100.0 mg/kg/injection, schedule: Q04DX003 (ip), vehicle: Klucel (hydroxypropylcellulose) (HPC)
[6] = T/C endpoint: mean survival time, dose: 200.0 mg/kg/injection, schedule: Q01DX001 (ip), vehicle: carboxymethylcellulose (CMC)
[7] = T/C endpoint: mean survival time, dose: 200.0 mg/kg/injection, schedule: Q04DX003 (ip), vehicle: Klucel (hydroxypropylcellulose) (HPC)
[8] = T/C endpoint: mean survival time, dose: 400.0 mg/kg/injection, schedule: Q01DX001 (ip), vehicle: carboxymethylcellulose (CMC)
[9] = T/C endpoint: mean survival time, dose: 400.0 mg/kg/injection, schedule: Q01DX009 (ip), vehicle: carboxymethylcellulose (CMC)
[10] = T/C endpoint: mean survival time, dose: 125.0 mg/kg/injection, schedule: Q01DX010 (ip), vehicle: saline

## CCN(CC)CCOC(=O)C(O)(c1ccccc1)c1cc(C)ccc1C (stereo not drawn)
T/C endpoint: mean survival time, dose: 75.0 mg/kg/injection, schedule: Q01DX001 (ip), vehicle: steroid suspending solution
  T/C: 104 % of control

## CCSP(N)(=O)CC (stereo not drawn)
T/C endpoint: mean survival time, dose: 5.0 mg/kg/injection, schedule: Q01DX001 (ip), vehicle: saline
  T/C: 101 % of control [survivor count not shown]
T/C endpoint: mean survival time, dose: 10.0 mg/kg/injection, schedule: Q01DX001 (ip), vehicle: saline
  T/C: 98 % of control [survivor count not shown]

## O=C(O)CCc1ccc(Oc2cc([N+](=O)[O-])c([N+](=O)[O-])c([N+](=O)[O-])c2)cc1
[1]
  T/C: 93 % of control
[2]
  T/C: 93 % of control
[3]
  T/C: 97 % of control

## CC(=O)OCN(CN(CN(COC(C)=O)[N+](=O)[O-])[N+](=O)[O-])[N+](=O)[O-]
[4]
  T/C: 93 % of control [survivor count not shown]
[5]
  T/C: 107 % of control [survivor count not shown]
[6]
  T/C: 100 % of control [survivor count not shown]
[7]
  T/C: 111 % of control [survivor count not shown]
[8]
  T/C: 102 % of control [survivor count not shown]

## OC1CN2CCC1CC2 (stereo not drawn)
T/C endpoint: mean survival time, dose: 37.5 mg/kg/injection, schedule: Q01DX009 (ip), vehicle: saline
  T/C: 94 % of control [survivor count not shown]
T/C endpoint: mean survival time, dose: 75.0 mg/kg/injection, schedule: Q01DX009 (ip), vehicle: saline
  T/C: 91 % of control [survivor count not shown]
T/C endpoint: mean survival time, dose: 100.0 mg/kg/injection, schedule: Q04DX002 (ip), vehicle: saline
  T/C: 117 % of control [survivor count not shown]
T/C endpoint: mean survival time, dose: 200.0 mg/kg/injection, schedule: Q04DX002 (ip), vehicle: saline
  T/C: 103 % of control [survivor count not shown]

## O=[N+]([O-])c1cc([N+](=O)[O-])c(Nc2c([N+](=O)[O-])cc([N+](=O)[O-])cc2[N+](=O)[O-])c([N+](=O)[O-])c1
[5]
  T/C: 97 % of control [survivor count not shown]
[7]
  T/C: 100 % of control [survivor count not shown]

## O=[N+]([O-])N=C1NCCN1
[1]
  T/C: 100 % of control
[2]
  T/C: 103 % of control
[3]
  T/C: 93 % of control

## O=C(NO)N/N=C/c1ccc(N(CCCl)CCCl)cc1
T/C endpoint: mean survival time, dose: 118.0 mg/kg/injection, schedule: Q01DX009 (ip), vehicle: carboxymethylcellulose (CMC)
  T/C: 115 and 134 % of control
T/C endpoint: mean survival time, dose: 177.0 mg/kg/injection, schedule: Q01DX001 (ip), vehicle: carboxymethylcellulose (CMC)
  T/C: 123 % of control
T/C endpoint: mean survival time, dose: 177.0 mg/kg/injection, schedule: Q01DX009 (ip), vehicle: carboxymethylcellulose (CMC)
  T/C: 128 and 151 % of control
T/C endpoint: mean survival time, dose: 266.0 mg/kg/injection, schedule: Q01DX001 (ip), vehicle: carboxymethylcellulose (CMC)
  T/C: 130 and 137 % of control
T/C endpoint: mean survival time, dose: 266.0 mg/kg/injection, schedule: Q01DX007 (ip), vehicle: carboxymethylcellulose (CMC)
  T/C: 168 % of control
T/C endpoint: mean survival time, dose: 266.0 mg/kg/injection, schedule: Q01DX009 (ip), vehicle: carboxymethylcellulose (CMC)
  T/C: 119 and 120 % of control [5 of 6 alive]
[8]
  T/C: 110 and 140 % of control
T/C endpoint: mean survival time, dose: 400.0 mg/kg/injection, schedule: Q01DX007 (ip), vehicle: carboxymethylcellulose (CMC)
  T/C: 121 % of control
[9]
  T/C: 143 % of control
  survivor count: 6 of 6
T/C endpoint: mean survival time, dose: 600.0 mg/kg/injection, schedule: Q01DX001 (ip), vehicle: carboxymethylcellulose (CMC)
  T/C: 121 and 148 % of control
T/C endpoint: mean survival time, dose: 600.0 mg/kg/injection, schedule: Q01DX007 (ip), vehicle: carboxymethylcellulose (CMC)
  survivor count: 4 of 6

## CCOP(=O)(NC=S)NC(=S)N1CC1 (stereo not drawn)
[4]
  T/C: 91 % of control
[6]
  T/C: 96 % of control
[8]
  survivor count: 1 of 6

## CC(C)c1nc(Nc2ccccc2)n(P(=O)(N(C)C)N(C)C)n1
T/C endpoint: mean survival time, dose: 1.5 mg/kg/injection, schedule: Q01DX009 (ip), vehicle: saline
  T/C: 98 % of control
T/C endpoint: mean survival time, dose: 1.5 mg/kg/injection, schedule: Q04DX003 (ip), vehicle: saline
  T/C: 101 % of control
T/C endpoint: mean survival time, dose: 3.0 mg/kg/injection, schedule: Q01DX009 (ip), vehicle: saline
  T/C: 100 % of control
T/C endpoint: mean survival time, dose: 3.0 mg/kg/injection, schedule: Q04DX003 (ip), vehicle: saline
  T/C: 106 % of control
T/C endpoint: mean survival time, dose: 6.0 mg/kg/injection, schedule: Q01DX009 (ip), vehicle: saline
  T/C: 109 % of control
T/C endpoint: mean survival time, dose: 6.0 mg/kg/injection, schedule: Q04DX003 (ip), vehicle: saline
  T/C: 103 % of control
T/C endpoint: mean survival time, dose: 12.5 mg/kg/injection, schedule: Q04DX003 (ip), vehicle: saline
  survivor count: 1 of 6
T/C endpoint: mean survival time, dose: 25.0 mg/kg/injection, schedule: Q04DX003 (ip), vehicle: saline
  survivor count: 0 of 6
T/C endpoint: mean survival time, dose: 50.0 mg/kg/injection, schedule: Q04DX003 (ip), vehicle: saline
  survivor count: 0 of 6
T/C endpoint: mean survival time, dose: 100.0 mg/kg/injection, schedule: Q04DX003 (ip), vehicle: saline
  survivor count: 0 of 6
T/C endpoint: mean survival time, dose: 200.0 mg/kg/injection, schedule: Q04DX003 (ip), vehicle: saline
  survivor count: 0 of 6
T/C endpoint: mean survival time, dose: 400.0 mg/kg/injection, schedule: Q04DX003 (ip), vehicle: saline
  survivor count: 0 of 6

## CC[C@H](C)[C@@H]1NC(=O)/C(=C(\C)O)C1=O
T/C endpoint: mean survival time, dose: 12.5 mg/kg/injection, schedule: Q01DX Z (ip), vehicle: carboxymethylcellulose (CMC)
  T/C: 107 % of control
T/C endpoint: mean survival time, dose: 15.6 mg/kg/injection, schedule: Q01DX010 (ip), vehicle: saline
  T/C: 104 and 106 % of control
T/C endpoint: mean survival time, dose: 25.0 mg/kg/injection, schedule: Q01DX Z (ip), vehicle: carboxymethylcellulose (CMC)
  T/C: 120 % of control [5 of 6 alive]
T/C endpoint: mean survival time, dose: 25.0 mg/kg/injection, schedule: Q01DX Z (ip), vehicle: water
  T/C: 98 % of control
T/C endpoint: mean survival time, dose: 31.3 mg/kg/injection, schedule: Q01DX010 (ip), vehicle: saline
  T/C: 104 and 106 % of control
T/C endpoint: mean survival time, dose: 50.0 mg/kg/injection, schedule: Q01DX Z (ip), vehicle: carboxymethylcellulose (CMC)
  T/C: 104 % of control [4 of 6 alive]
T/C endpoint: mean survival time, dose: 50.0 mg/kg/injection, schedule: Q01DX Z (ip), vehicle: water
  survivor count: 3 of 6
T/C endpoint: mean survival time, dose: 62.5 mg/kg/injection, schedule: Q01DX010 (ip), vehicle: saline
  T/C: 102 and 104 % of control
T/C endpoint: mean survival time, dose: 100.0 mg/kg/injection, schedule: Q01DX Z (ip), vehicle: carboxymethylcellulose (CMC)
  survivor count: 0 of 6
T/C endpoint: mean survival time, dose: 100.0 mg/kg/injection, schedule: Q01DX Z (ip), vehicle: water
  survivor count: 0 of 6
[10]
  T/C: 110 % of control [5 of 6 alive]
  survivor count: 0 of 6
T/C endpoint: mean survival time, dose: 200.0 mg/kg/injection, schedule: Q01DX Z (ip), vehicle: water
  survivor count: 0 of 6
T/C endpoint: median survival time, dose: 25.0 mg/kg/injection, schedule: Q04DX003 (ip), vehicle: saline
  T/C: 103 % of control
T/C endpoint: median survival time, dose: 50.0 mg/kg/injection, schedule: Q04DX003 (ip), vehicle: saline
  T/C: 102 % of control
T/C endpoint: median survival time, dose: 100.0 mg/kg/injection, schedule: Q04DX003 (ip), vehicle: saline
  T/C: 100 % of control [6 of 8 alive]
T/C endpoint: median survival time, dose: 200.0 mg/kg/injection, schedule: Q04DX003 (ip), vehicle: saline
  survivor count: 1 of 8
T/C endpoint: median survival time, dose: 400.0 mg/kg/injection, schedule: Q04DX003 (ip), vehicle: saline
  survivor count: 0 of 8

## O=C(O)c1c([N+](=O)[O-])cc([N+](=O)[O-])cc1[N+](=O)[O-]
T/C endpoint: mean survival time, dose: 75.0 mg/kg/injection, schedule: Q01DX001 (ip), vehicle: saline
  T/C: 96 % of control [survivor count not shown]
T/C endpoint: mean survival time, dose: 150.0 mg/kg/injection, schedule: Q01DX001 (ip), vehicle: saline
  T/C: 96 % of control [survivor count not shown]
T/C endpoint: mean survival time, dose: 300.0 mg/kg/injection, schedule: Q01DX001 (ip), vehicle: saline
  T/C: 94 % of control [survivor count not shown]
